Values of other authors, collected in paper PMC8037910, “Effect of Chronic Administration of 5-(3-chlorophenyl)-4-Hexyl-2,4 -Dihydro-3H-1,2,4-Triazole-3-Thione (TP-315)—A New Anticonvulsant Drug Candidate—On Living Organisms” (International Journal of Molecular Sciences, 2021).

Key:
[1] = tested on: maximal electroshock-induced seizure (MES); set-up: method as in PMID 23291122, PMID 25226229, PMID 25090118; details: mice, cited from earlier work
[2] = tested on: 6 Hz psychomotor seizure model; set-up: method as in PMID 32253957; details: mice, cited from earlier work

For `CC(C)Cn1c(Cc2cccc(Cl)c2)n[nH]c1=S` [TPR-22, 5-(3-Chlorobenzyl)-4-isobutyl-2,4-dihydro-3H-1,2,4-triazole-3-thione], the “MES Test PI (TD50/ED50)” value ([1]; pretreatment time 15 min) is listed as 2.3, the “MES Test PI (TD50/ED50)” value ([1]; pretreatment time 30 min) is listed as 2.4 and the “MES Test PI (TD50/ED50)” value ([1]; pretreatment time 60 min) is listed as 2.0. The “MES Test PI (TD50/ED50)” value ([1]; pretreatment time 120 min) was 1.7.

In the case of `CCCCCCn1c(-c2cccc(Cl)c2)n[nH]c1=S` [TP-315, 5-(3-Chlorophenyl)-4-hexyl-2,4-dihydro-3H-1,2,4-triazole-3-thione], the “6 Hz Test PI (TD50/ED50)” value ([2]; pretreatment time 15 min) is given as 7.6, the “6 Hz Test PI (TD50/ED50)” value ([2]; pretreatment time 30 min) is given as 7.8 and the “6 Hz Test PI (TD50/ED50)” value ([2]; pretreatment time 60 min) is given as 6.7. For the same compound, the “6 Hz Test PI (TD50/ED50)” value ([2]; pretreatment time 120 min) was 3.3, the “MES Test PI (TD50/ED50)” value ([1]; pretreatment time 15 min) was 9.7 and the “MES Test PI (TD50/ED50)” value ([1]; pretreatment time 30 min) was 6.8. For the same compound, the “MES Test PI (TD50/ED50)” value ([1]; pretreatment time 60 min) was 4.7 and the “MES Test PI (TD50/ED50)” value ([1]; pretreatment time 120 min) was 2.8.

In the case of `Cc1ccc(-n2c(-c3cccc(Cl)c3)n[nH]c2=S)cc1` [TP-10, 5-(3-Chlorophenyl)-4-(4-methylphenyl)-2,4-dihydro-3H-1,2,4-triazole-3-thione], the “6 Hz Test PI (TD50/ED50)” value ([2]; pretreatment time 15 min) is listed as 5.4, the “6 Hz Test PI (TD50/ED50)” value ([2]; pretreatment time 30 min) is listed as 5.5 and the “6 Hz Test PI (TD50/ED50)” value ([2]; pretreatment time 60 min) is listed as 2.0. The “6 Hz Test PI (TD50/ED50)” value ([2]; pretreatment time 120 min) was 2.4, the “MES Test PI (TD50/ED50)” value ([1]; pretreatment time 15 min) was 5.9 and the “MES Test PI (TD50/ED50)” value ([1]; pretreatment time 30 min) was 4.5. The “MES Test PI (TD50/ED50)” value ([1]; pretreatment time 60 min) was 1.8 and the “MES Test PI (TD50/ED50)” value ([1]; pretreatment time 120 min) was 1.4.

For `CCCCCCn1c(Cc2cccc(Cl)c2)n[nH]c1=S` [TP-427, 5-(3-Chlorobenzyl)-4-hexyl-2,4-dihydro-3H-1,2,4-triazole-3-thione], the “6 Hz Test PI (TD50/ED50)” value ([2]; pretreatment time 15 min) is given as over 24.4, the “6 Hz Test PI (TD50/ED50)” value ([2]; pretreatment time 30 min) is given as over 21.5 and the “6 Hz Test PI (TD50/ED50)” value ([2]; pretreatment time 60 min) is given as 10.5. The “6 Hz Test PI (TD50/ED50)” value ([2]; pretreatment time 120 min) was 8.5, the “MES Test PI (TD50/ED50)” value ([1]; pretreatment time 15 min) was over 13 and the “MES Test PI (TD50/ED50)” value ([1]; pretreatment time 30 min) was over 13. The “MES Test PI (TD50/ED50)” value ([1]; pretreatment time 60 min) was 6.5 and the “MES Test PI (TD50/ED50)” value ([1]; pretreatment time 120 min) was 5.6.

Like-named read-outs stand apart in the source and are kept apart here.
